Measured values: publication PMC10615203, “The 14-3-3 protein OsGF14f interacts with OsbZIP23 and enhances its activity to confer osmotic stress tolerance in rice”
Results are given in words; binding and its absence hold for the method and conditions named. A result given as binding can be weak or reduced; the word gives no strength. For some of these results: In cells and extracts the contact can be indirect. For some of these results: Where a sequence is shown, tags or fusion partners need not be part of it.

Assays:
[1] = target: T1, OsbZIP23-GFP (rice (Oryza sativa)) (UniProt Q6Z312); experiment: co-IP; GFP or OsbZIP23-GFP coexpressed with OsGF14f-6HA in N. benthamiana leaves; extracts in Co-IP buffer (50 mM Tris-HCl pH 8.0, 150 mM NaCl, 1 mM EDTA, 0.5% Triton X-100, 1 mM DTT) incubated with GFP-Trap magnetic beads 3 h at 4 °C; blots with anti-GFP and anti-HA
T1 sequence: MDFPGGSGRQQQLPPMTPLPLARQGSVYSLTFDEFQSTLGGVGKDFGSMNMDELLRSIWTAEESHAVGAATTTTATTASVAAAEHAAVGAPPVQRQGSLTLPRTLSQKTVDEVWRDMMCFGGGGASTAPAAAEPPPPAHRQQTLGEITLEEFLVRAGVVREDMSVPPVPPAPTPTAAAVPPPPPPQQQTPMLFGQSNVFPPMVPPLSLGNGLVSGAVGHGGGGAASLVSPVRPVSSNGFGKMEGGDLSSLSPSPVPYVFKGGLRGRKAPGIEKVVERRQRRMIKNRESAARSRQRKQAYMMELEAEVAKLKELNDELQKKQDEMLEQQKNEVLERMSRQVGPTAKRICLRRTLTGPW

[2] = target: G-BOX FACTOR 14-3-3f (14-3-3 protein OsGF14f), bait in pGBKT7 (rice (Oryza sativa)); experiment: two-hybrid; targeted assay: bait pGBKT7-OsGF14f and prey pGADT7 constructs cotransformed into yeast AH109; growth in 10-, 100- and 1000-fold dilutions on SD lacking Leu, Trp, Ade and His, 30 °C
[3] = target: cLUC-OsGF14f (rice (Oryza sativa)); experiment: split reporter; firefly luciferase complementation imaging (LCI) in N. benthamiana leaves, 3 d after infiltration; also with 10 µM ABA for 4 h before imaging (signal enhanced)

Molecule | binding [2] | other results
OsGF14f-6HA (rice (Oryza sativa)) |  | binding [1]: binds
BASIC LEUCINE ZIPPER 23 (OsbZIP23), full length in the prey vector pGADT7 (protein, UniProt Q6Z312 1-357) MDFPGGSGRQQQLPPMTPLPLARQGSVYSLTFDEFQSTLGGVGKDFGSMNMDELLRSIWTAEESHAVGAATTTTATTASVAAAEHAAVGAPPVQRQGSLTLPRTLSQKTVDEVWRDMMCFGGGGASTAPAAAEPPPPAHRQQTLGEITLEEFLVRAGVVREDMSVPPVPPAPTPTAAAVPPPPPPQQQTPMLFGQSNVFPPMVPPLSLGNGLVSGAVGHGGGGAASLVSPVRPVSSNGFGKMEGGDLSSLSPSPVPYVFKGGLRGRKAPGIEKVVERRQRRMIKNRESAARSRQRKQAYMMELEAEVAKLKELNDELQKKQDEMLEQQKNEVLERMSRQVGPTAKRICLRRTLTGPW | binds | 
OsbZIP23-nLUC (protein, UniProt Q6Z312 1-357) MDFPGGSGRQQQLPPMTPLPLARQGSVYSLTFDEFQSTLGGVGKDFGSMNMDELLRSIWTAEESHAVGAATTTTATTASVAAAEHAAVGAPPVQRQGSLTLPRTLSQKTVDEVWRDMMCFGGGGASTAPAAAEPPPPAHRQQTLGEITLEEFLVRAGVVREDMSVPPVPPAPTPTAAAVPPPPPPQQQTPMLFGQSNVFPPMVPPLSLGNGLVSGAVGHGGGGAASLVSPVRPVSSNGFGKMEGGDLSSLSPSPVPYVFKGGLRGRKAPGIEKVVERRQRRMIKNRESAARSRQRKQAYMMELEAEVAKLKELNDELQKKQDEMLEQQKNEVLERMSRQVGPTAKRICLRRTLTGPW |  | binding [3]: binds
basic leucine zipper 46 (OsbZIP46) in pGADT7 (protein, UniProt Q69TW5 1-324) MELPADGSALARQGSIYSLTFDEFQSALGSAEKDFGSMNMDELLRNIWTAEESQAIAPAAAAASAAAVVGDAQQQQQPIQRQGSLTLPRTLSQKTVDEVWRDIMGLGGSDDEDPAAAAAAAAPAQRQPTLGEMTLEEFLVRAGVVREDMGQTIVLPPQAQALFPGSNVVAPAMQLANGMLPGVVGVAPGAAAAMTVAAPATPVVLNGLGKVEGGDLSSLSPVPYPFDTALRVRKGPTVEKVVERRQRRMIKNRESAARSRARKQAYIMELEAEVAKLKEQKAELQKKQVEMIQKQNDEVMERITQQLGPKAKRFCLRRTLTGPC | binds | 
